Where a name gives a salt, the structure may show the parent alone.
Assays:
[1] = tested on: Tcf4+/tr mouse model of PTHS; assay: In vivo immunohistochemical (IHC) quantification of OPCs and OLs after two-week intraperitoneal dosing; conditions: Tcf4+/tr mice dosed with clemastine up to p42, samples collected at p90
Text: The Tcf4^+/tr mouse model of PTHS is heterozygous for an allele encoding deletion of the DNA-binding domain of TCF4 (B6; 129-TCF4tmlZhu/J, stock number 013598, Jackson Laboratory). This mouse colony was backcrossed for at least six generations, maintained by The Lieber Institute for Brain Developments Animal Facility on a 12-h light/dark cycle and fed ad libitum. Tcf4^+/tr mouse samples were matched with samples from Tcf4^+/+ littermates, and sex was randomly selected in each genotype and age group. […]
Cells were rinsed 1× with PBS and then fixed with 4% paraformaldehyde (PFA) for 5 minutes, following fixation cells were rinsed 3× with PBS. […] Imaging and quantification were performed blind to genotypes and conditions/treatments.
Next, we assessed the effectiveness of clemastine in vivo by dosing Tcf4^+/tr mice and Tcf4^+/+ littermates intraperitoneally with either clemastine (10 mg/kg) or vehicle for two weeks followed by immunohistochemical (IHC) quantification (FIG. 2A). […]
Next, we assessed the effectiveness of Sob-AM2 in vivo by dosing Tcf4^+/tr mice and Tcf4^+/+ littermates intraperitoneally with either Sob-AM2 (1 mg/kg) or vehicle for two weeks followed by immunohistochemical (IHC) quantification (FIG. 7D).

[2] = tested on: Tcf4+/tr mouse model of PTHS; conditions: corpus callosum slices, two-week clemastine treatment, compared to vehicle-treated Tcf4+/tr littermates
Method: 5% DMA (dimethylacetamide, Sigma 271012) was added up to the total volume needed. […] The mixture was shaken vigorously (vortex) and was ready for administration for intraperitoneal (1P) dosing at 10 mL/kg. The final pH was approximately 5. […] Initial dosing was performed at P28 up until P42 when animals were then used for subsequent experiments.

CN1CCC[C@@H]1CCO[C@](C)(c1ccccc1)c1ccc(Cl)cc1 [clemastine, clemastine fumarate]
mature OLs at p90 after halting administration at p42 [1]: mature OLs are maintained after halting dosage | N1/N2 ratio (CAPs down myelinated vs unmyelinated axons) [2]: significantly increasing the N1/N2 ratio

Source: patent publication US20240307334A1 (Lieber Institute, Inc., priority 2023, published 2024)
